# Source: the supplement of paper PMC10338343
# ± gives the standard deviation. Only a part is listed here, and it is no random draw. Many of these values have a large error.
# Columns and labels:
# [1] = system: MILI (PIWIL2) piRISC loaded with piRNA #1 (26 nt); assay: pre-steady-state target cleavage rate (min^-1); higher = faster piRNA-guided slicing of the target; details: guide: piRNA #1 5'p-UGAGGUAGUAGGUUGUAUAGUAUCCA; auxiliary factor: 500 nM mouse GTSF1
# Summary of the method: (§1)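 In HEPES–potassium acetate buffer at 33 °C, […] transcribed, DNA-blocked target RNA library was mixed with 1 nM active affinity-purified piRISC carrying one synthetic guide, with or without 500 nM GTSF1 partner protein, for 0–8 or 0–960 min. Uncleaved targets were sequenced and normalised to depth and to weakly complementary targets; three trials were pooled and k3 was capped at 0.0001 min^-1. The pre-steady-state cleavage rate followed from a burst-and-steady-state fit.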
# [2] = system: MIWI (PIWIL1) piRISC loaded with piRNA #1 (30 nt); assay: as above; details: guide: piRNA #1 5'p-UGAGGUAGUAGGUUGUAUAGUAUCCAGAGG; auxiliary factor: 500 nM mouse GTSF1
# Summary of the method: as §1
# [3] = system: EfPiwi piRISC loaded with piRNA #1 (26 nt); assay: pre-steady-state target cleavage rate (min^-1); guide: piRNA #1 5'p-UGAGGUAGUAGGUUGUAUAGUAUCCA; MIWI and MILI are mouse PIWI proteins and EfPiwi is from a freshwater sponge; tags in brackets are library labels; higher = faster piRNA-guided slicing of the target; details: auxiliary factor: 500 nM Ephydatia muelleri Gtsf1
# Summary of the method: as §1
Sequence,pre-steady-state target cleavage rate [1],pre-steady-state target cleavage rate [2],pre-steady-state target cleavage rate [3]
GGAGACCUAUGAAUACAGCCUACUACCUCA,0.00194 ± 0.0041,0.00125 ± 0.0048,–
GGAGACCUAUGAUUACAACCUUCUAGCUCA,0.00137 ± 0.0045,0.000208 ± 0.0093,0.000285 ± 0.0092
GGAGACCUAUGAUAUGUACCUACUACCUUCA,0.000127 ± 0.017,0.000195 ± 0.012,–
GGAGACCUAUGAUAUGUUGGUACUCCUCA,0.000392 ± 0.009,0.000392 ± 0.0094,–
GGAGACCUAUGAAUACAACCUACAUGCUCA,0.00139 ± 0.0035,0.000106 ± 0.029,–
GGAGACCUAUGUAUAGAACCAACUACCUCA,0.00128 ± 0.0039,0.000347 ± 0.0066,–
GGAGACCUAUGAAUACAACCAAGUACCUCA,0.00253 ± 0.0033,0.000697 ± 0.0037,0.000125 ± 0.022
GGAGACCUAUGAUAUCAACCUACUACCACA,0.000844 ± 0.0066,0.000133 ± 0.021,–
GGAGACGAUACUAUACGAACCUACUACCUCA,0.00117 ± 0.0071,0.00114 ± 0.007,–
GGAGACCUAUGAUUACAACGUACUACCUGA,0.00166 ± 0.0066,0.000304 ± 0.012,–
GGAGACCUAUCUAUACAACCUACUAGGUCA,0.000722 ± 0.01,0.00326 ± 0.0037,–
GGAGACCUAACUAUACAACCUCACUACCUCA,0.00207 ± 0.009,0.00221 ± 0.0069,–
GGAGACCUAUGAUAUGUUCUUACUACCUCA,0.000292 ± 0.0094,0.000628 ± 0.0054,0.000407 ± 0.0049
GGAGACCUAUGUAUACUACCAACUACCUCA,0.00234 ± 0.0026,0.000142 ± 0.012,0.000247 ± 0.015
GGAGACCUAUGAUAUGUUGAUACUACCUCA,0.000337 ± 0.01,0.000933 ± 0.0039,0.000383 ± 0.0048
GGAGACCUAUGUAUAGUACCUACUACCUCA,0.013 ± 0.0027,0.000688 ± 0.0068,0.00121 ± 0.0048
GGAGACCUAUGAUUACAACCUAGUACCUGA,0.000156 ± 0.011,0.000115 ± 0.013,0.000262 ± 0.0079
GGAGACCUAUCUAUACAACCUACUCCUCA,0.00284 ± 0.003,0.000787 ± 0.0057,–
GGAGACCUAUGAUUUCAAGCUACUACCUCA,0.00713 ± 0.0026,0.000918 ± 0.0052,0.000549 ± 0.0041

# Reprinted at random: 2 records from the list, in no set order.
Sequence,pre-steady-state target cleavage rate [1],pre-steady-state target cleavage rate [2],pre-steady-state target cleavage rate [3]
GGAGACCUAUGUAUACUACCAACUACCUCA,0.00234 ± 0.0026,0.000142 ± 0.012,0.000247 ± 0.015
GGAGACCUAUGAUAUGUUGGUACUCCUCA,0.000392 ± 0.009,0.000392 ± 0.0094,–
